Laboratory results: PubChem BioAssay AID1671195 (Yale University, 2021)

Screen: 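Regulators of LDL receptor activity judged by labelled LDL uptake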 (primary screen)
Cell system: human Huh7 hepatoma cells
Knock-down reagent: siRNA pool against human genes, 18 nM
Duration: about 2 to 2.5 days of knockdown, then 8 h LDL uptake
Conditions: DiI-labelled LDL at 30 µg/ml for 8 h, in lipoprotein-deficient serum medium
Read-out: 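Fluorescent LDL signal imaged in cells, scaled to the plate median, robust z-score for each replicate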
Reading the numbers: robust z-score: higher = more LDL uptake after knockdown
Hit rule: 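Active when two or more replicates show a robust z-score above 2 or below -2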
The deposit covers about 22,000 reagents; shown is a random part of them. Of all reagents, about 1,510 (6.9%) are marked active. 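Active includes knockdowns raising or lowering LDL uptake; positive z-scores mean more uptake, negative mean less.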 Unmarked entries are inactive.

Knock-down of HSD17B11 resulted in: robust z-score, replicate 1 = 0.144; robust z-score, replicate 2 = 0.433; robust z-score, replicate 3 = 0.314.
After knock-down of RPL6P2, the record shows robust z-score, replicate 1 = 0.518; robust z-score, replicate 2 = 0.838; robust z-score, replicate 3 = 1.33.
Knock-down of GABPB1 gave: robust z-score, replicate 1 = 0.0182; robust z-score, replicate 2 = -0.487; robust z-score, replicate 3 = -0.54.
EIF1AD scored robust z-score, replicate 1 = 0.51; robust z-score, replicate 2 = 1.26; robust z-score, replicate 3 = 0.441.
For ZNF595, the values are robust z-score, replicate 1 = -0.337; robust z-score, replicate 2 = 0.0337; robust z-score, replicate 3 = -0.26.
With knock-down of ACSBG1, the screen gave robust z-score, replicate 1 = 2.01; robust z-score, replicate 2 = -0.366; robust z-score, replicate 3 = 0.101.
SNX6 scored robust z-score, replicate 1 = -0.0869; robust z-score, replicate 2 = 0.0786; robust z-score, replicate 3 = 0.197.
WRAP53 showed robust z-score, replicate 1 = -1.34; robust z-score, replicate 2 = 0.46; robust z-score, replicate 3 = -0.597.
With knock-down of ILDR1, the record shows robust z-score, replicate 1 = 0.981; robust z-score, replicate 2 = 0.74; robust z-score, replicate 3 = 0.632.
MROH2A scored robust z-score, replicate 1 = 0.0617; robust z-score, replicate 2 = 0.536; robust z-score, replicate 3 = 0.698.
Depletion of ITIH6 gave: robust z-score, replicate 1 = 2.79 (active); robust z-score, replicate 2 = 0.772; robust z-score, replicate 3 = 2.59.
PEMT gave robust z-score, replicate 1 = -1.71; robust z-score, replicate 2 = -0.903; robust z-score, replicate 3 = -0.83.
